Measurements as given in publication PMC9555560, “Fast relaxing red and near-IR switchable azobenzenes with chalcogen and halogen substituents: periodic trends, tuneable thermal half-lives and chalcogen bonding” (Chemical Science, 2022).

Assay: E → Z photo-isomerisation with LEDs / photo-stationary state (PSS) determination
Format: physicochemical
Set-up: key to τ 1/2 (footnote symbol printed instead of a half-life: outcome under irradiation): Decomposed under irradiation with light.; No photo-switching observed
Settings: for τ 1/2 (footnote symbol printed instead of a half-life: outcome under irradiation): DMSO, 298 K
Experimental: The E → Z photo-isomerisation and half-life for the Z → E thermal isomerisation was evaluated for all derivatives (Fig. 7 and Table 1, see ESI ^† for original data). To our surprise, the half-lives for (Z)-X2,m-Y2 derivatives were in the order of hours to days for X = F and Cl: the effect of the meta group was not as drastic as anticipated. We typically observed a ∼4 fold decrease in half-life by substituting H with OMe, and a further 3-fold drop from OMe to NMe2 for X = F, Cl and SEt. The nature of the ortho-substituent appeared to be the main influence on τ1/2 (F > Cl ≫ SEt). However, these predictable trends observed for the meta-substitution allow for precise tuning of thermal half-lives. The photo-stationary states (PSSs) of these derivatives ranged from 48–77% Z isomer (Table 1).
Remarkably, it was possible to photo-switch the tetra-iodo derivative I4-ester using near-IR light (730 nm) (Fig. 8C). […] Photo-isomerisation was not detected for the ortho-telluro derivatives. This is consistent with findings by Haberhauer and co-workers, who propose that the strong chalcogen bonds in the E isomer of a PhTe-substituted azobenzene lead to dramatic energy differences between the E and Z isomers, which suppresses photoswitching.[43] The photo-stationary states of the halogen X4 derivatives range from 50–84% (Table 1) and could also be determined for the slower relaxing chalcogen derivatives (PSS 46–95%, see Fig. S308–S323 ^† for original data).
All UV-vis spectra were determined in DMSO solution. Extinction coefficients were determined by recording a UV-vis spectra for the E isomer at 10, 20, 30, 40 µM in DMSO respectively. The absorbance at the maximum of the π - π* transition of the E‐isomers was plotted against concentration (Beer-Lambert plot) to determine the molar extinction coefficient ε. For each slow relaxing compound, the E isomer sample at 40 µM was irradiated with the appropriate wavelength of light to generate the photo-stationary state, and another spectrum was run. This spectrum was normalised to units of ε and overlaid with the dark (100% E isomer) spectrum.
Deconvoluted spectra were prepared using Origin Pro 2020b by fitting each λmax to the “Multiple Peak […]
Photo-irradiation of liquid samples was carried out using Thorlabs high-power mounted LEDs (models […]
M530L4 (green, 530 nm); in-house custom built set-ups using optical components supplied by Thorlabs, as described in reference 2

SMILES	τ 1/2 (footnote symbol printed instead of a half-life: outcome under irradiation)	Switching with 660 nm light	Photo-switching / photo-isomerisation detected (room temperature, listed as Te4)
COc1cc(CNC(=O)OC(C)(C)C)c(OC)c(F)c1/N=N/c1c(OC)cc(CNC(=O)OC(C)(C)C)c(OC)c1F [(OMe)2F2,m-OMe2-NHBoc]	^c	–	–
CC(C)(C)OC(=O)NCc1ccc(/N=N/c2ccc(CNC(=O)OC(C)(C)C)cc2N2CCCC2)c(N2CCCC2)c1 [(N(CH2)4)2,m-H]	^c	–	–
CCOC(=O)c1cc(I)c(N=Nc2c(I)cc(C(=O)OCC)cc2I)c(I)c1 [I4-ester]	–	readily isomerise	–
COc1cc(/N=N/c2cc(OC)c(CNC(=O)OC(C)(C)C)cc2OC)c(OC)cc1CNC(=O)OC(C)(C)C [OMe2,m-OMe2]	^c	–	–
C[Te]c1cccc(F)c1/N=N/c1c(F)cccc1[Te]C [Te2F2-H]	^d	–	–
C[Se]c1cc(CNC(=O)OC(C)(C)C)cc([Se]C)c1/N=N/c1c([Se]C)cc(CNC(=O)OC(C)(C)C)cc1[Se]C [(SeMe)4-NHBoc]	–	does not switch	–
CCOP(=O)(OCC)c1ccccc1/N=N/c1ccccc1P(=O)(OCC)OCC [(PO(OEt)2)2,m-H]	^c	–	–
C[Te]c1cccc([Te]C)c1/N=N/c1c([Te]C)cccc1[Te]C [(TeMe)4-H]	^d	–	No photo-switching was detected
CC(C)(C)OC(=O)NCc1cc(I)c(N=Nc2c(I)cc(CNC(=O)OC(C)(C)C)cc2I)c(I)c1 [I4-NHBoc]	–	readily isomerise	–
CCSc1cc(CNC(=O)OC(C)(C)C)c(OC)c(SCC)c1/N=N/c1c(SCC)cc(CNC(=O)OC(C)(C)C)c(OC)c1SCC [(SEt)4,m-OMe2-NHBoc]	^c	–	–
